PubChem BioAssay AID1259425 – University of Nebraska Medical Center | 2018
Aim: 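Compare each knockdown with KSR1 silencing using changes in marker transcripts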 (primary screen). Cell system: HCT116 human colon cancer cells. Reagent: siRNA pool against human genes, 50 nM siRNA. Read-out: 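mRNA of six signature genes measured together by branched-DNA assay after 50 nM siRNA pool, blank removed, divided by geometric mean of two housekeeping genes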. Direction: BNIP3L mRNA: higher = more BNIP3L transcript after knockdown.
Shown is a random part of about 14,000 reagents tested. Further read-outs or replicates are left out here. No sequences are given here. The record does not give: the time to read-out.

target	BNIP3L mRNA, set 1
TRMT112	0.0756
DNAH5	0.0825
RHAG	0.084
STARD7	0.239
PITPNM3	0.165
FOXN1	0.0837
HLA-DMA	0.0982
ACTN1	0.0512
NDUFA3	0.142
TMEM69	0.144
SLC35A2	0.215
FAP	0.0483
WBP2	0.102
PIN1P1	0.103
SOX21	0.113
HCFC1R1	0.293
IL1RAPL1	0.0584
B4GAT1	0.0826
NTF3	0.0614
PCDHA11	0.112
PPP1CA	0.0527
FZD7	0.51
ALKBH3	0.085
CLEC7A	0.118
FOS	0.0878
THAP7	0.192
MANEA	0.0982
HMMR	0.094
PITX3	0.0505
EIF3E	0.0817
PRH1	0.157
STIP1	0.113
PNPLA3	0.118
PML	0.0975
SSTR4	0.137
GSG1	0.186
NDC80	0.145
CDH12	0.062
GARS1	0.137
ATP2A3	0.102
LARS2	0.116
KHK	0.101
ADGRB1	0.159
TSPAN2	0.051
MATK	0.0952
SCGB1A1	0.0717
CD207	0.197
SNRPC	0.0801
NAB1	0.0966
CLDN7	0.0866

Quoted from the listing, 3 entries:
target	BNIP3L mRNA, set 1
FOXN1	0.0837
HLA-DMA	0.0982
ACTN1	0.0512
